Like-named read-outs stand apart in the source and are kept apart here. Results are given in words; binding and its absence hold for the method and conditions named. In cells and extracts the contact can be indirect. Here binding means that the protein was enriched with, or labelled near, the bait; the list need not be complete.

Chains of the proteins cited; added tags and fusions are not shown.
UniProt Q9VK45: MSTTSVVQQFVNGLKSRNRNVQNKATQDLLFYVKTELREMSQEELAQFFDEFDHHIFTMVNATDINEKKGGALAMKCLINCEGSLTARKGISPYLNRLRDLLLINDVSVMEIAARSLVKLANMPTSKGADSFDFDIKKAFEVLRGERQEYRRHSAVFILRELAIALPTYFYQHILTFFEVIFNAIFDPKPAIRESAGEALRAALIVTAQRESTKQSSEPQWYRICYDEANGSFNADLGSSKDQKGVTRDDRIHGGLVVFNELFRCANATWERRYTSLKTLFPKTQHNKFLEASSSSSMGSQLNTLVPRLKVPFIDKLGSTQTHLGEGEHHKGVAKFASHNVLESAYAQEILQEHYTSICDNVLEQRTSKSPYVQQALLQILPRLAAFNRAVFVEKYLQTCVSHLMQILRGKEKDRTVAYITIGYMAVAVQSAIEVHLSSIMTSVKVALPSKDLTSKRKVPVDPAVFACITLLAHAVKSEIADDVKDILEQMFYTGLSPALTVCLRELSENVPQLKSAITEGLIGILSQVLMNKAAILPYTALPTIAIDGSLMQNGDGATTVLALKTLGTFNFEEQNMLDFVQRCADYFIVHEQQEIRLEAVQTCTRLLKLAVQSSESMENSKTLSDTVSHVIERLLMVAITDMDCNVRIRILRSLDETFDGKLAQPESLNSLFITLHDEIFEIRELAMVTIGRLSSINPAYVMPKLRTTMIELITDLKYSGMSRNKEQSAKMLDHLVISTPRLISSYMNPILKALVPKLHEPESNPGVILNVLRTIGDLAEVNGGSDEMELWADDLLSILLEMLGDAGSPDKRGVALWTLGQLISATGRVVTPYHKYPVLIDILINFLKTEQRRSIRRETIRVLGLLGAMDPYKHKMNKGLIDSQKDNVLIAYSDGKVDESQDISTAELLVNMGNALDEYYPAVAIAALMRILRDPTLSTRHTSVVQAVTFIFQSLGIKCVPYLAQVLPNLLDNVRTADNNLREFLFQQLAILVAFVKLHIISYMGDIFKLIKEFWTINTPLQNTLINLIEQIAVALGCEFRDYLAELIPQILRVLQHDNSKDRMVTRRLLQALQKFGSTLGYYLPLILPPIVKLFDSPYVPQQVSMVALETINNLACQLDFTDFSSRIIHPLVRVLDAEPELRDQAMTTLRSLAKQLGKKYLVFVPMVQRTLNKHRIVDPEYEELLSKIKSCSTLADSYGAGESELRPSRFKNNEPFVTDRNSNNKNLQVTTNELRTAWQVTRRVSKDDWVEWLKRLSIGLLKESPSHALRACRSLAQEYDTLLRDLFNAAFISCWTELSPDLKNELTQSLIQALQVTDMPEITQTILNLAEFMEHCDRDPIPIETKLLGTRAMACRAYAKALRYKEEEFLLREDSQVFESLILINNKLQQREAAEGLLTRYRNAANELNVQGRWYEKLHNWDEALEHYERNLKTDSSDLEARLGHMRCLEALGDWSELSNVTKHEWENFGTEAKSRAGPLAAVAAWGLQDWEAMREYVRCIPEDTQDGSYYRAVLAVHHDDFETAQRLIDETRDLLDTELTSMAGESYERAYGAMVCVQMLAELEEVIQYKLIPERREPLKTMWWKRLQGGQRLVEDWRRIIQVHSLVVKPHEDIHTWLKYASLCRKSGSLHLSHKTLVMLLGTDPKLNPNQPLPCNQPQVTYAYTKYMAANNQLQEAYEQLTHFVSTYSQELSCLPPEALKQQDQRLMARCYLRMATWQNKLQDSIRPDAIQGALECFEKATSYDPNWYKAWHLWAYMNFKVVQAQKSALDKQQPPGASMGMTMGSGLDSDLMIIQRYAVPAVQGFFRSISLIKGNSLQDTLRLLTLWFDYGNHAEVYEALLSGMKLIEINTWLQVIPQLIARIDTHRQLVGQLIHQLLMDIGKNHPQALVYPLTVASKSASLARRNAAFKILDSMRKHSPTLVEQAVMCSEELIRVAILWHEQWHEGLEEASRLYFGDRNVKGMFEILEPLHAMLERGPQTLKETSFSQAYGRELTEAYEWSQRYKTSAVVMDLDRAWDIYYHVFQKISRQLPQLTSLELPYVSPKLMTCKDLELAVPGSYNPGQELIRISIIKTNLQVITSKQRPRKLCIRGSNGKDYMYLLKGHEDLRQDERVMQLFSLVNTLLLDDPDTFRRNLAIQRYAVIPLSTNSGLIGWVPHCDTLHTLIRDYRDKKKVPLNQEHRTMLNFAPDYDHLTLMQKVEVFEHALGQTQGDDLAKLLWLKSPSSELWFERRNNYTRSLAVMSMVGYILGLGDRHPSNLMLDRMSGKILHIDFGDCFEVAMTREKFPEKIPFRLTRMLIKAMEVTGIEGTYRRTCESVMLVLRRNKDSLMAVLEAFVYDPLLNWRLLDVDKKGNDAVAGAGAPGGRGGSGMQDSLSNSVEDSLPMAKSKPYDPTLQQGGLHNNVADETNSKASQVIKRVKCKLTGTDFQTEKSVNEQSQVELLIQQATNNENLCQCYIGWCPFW

Our source for the binding values is publication doi:10.1101/2020.06.16.155333.

Assay [1] concerns the target GST-Bsd (Drosophila) (UniProt Q7KMI3). The assay can be described thus: affinity purification with mass spectrometry.
For assay [2] the target is unchanged. The assay can be described thus: affinity purification with mass spectrometry. This is another data set of the same source.

On to “Target of Rapamycin (from UniProt Q9VK45 1-2470)”, for which the binding result with GST-Bsd (Drosophila) [1] was “binds”.

B1: Jaguar (Jar) (endogenous, embryo lysate) (protein, UniProt Q01989 1-1253)
chain: MLEDTQLVWVRDAAEGYIQGRITEIGAKEFEVTPTDRKYPKRTCHFDDIHSSCDGPQDHDDNCELMLLNEATFLDNLKTRYYKDKIYTYVANILIAVNPYREIKELYAPDTIKKYNGRSLGELPPHVFAIADKAIRDMRVYKLSQSIIVSGESGAGKTESTKYLLKYLCYSHDSAGPIETKILDANPVLEAFGNAKTTRNNNSSRFGKFIEVHYDAKCQVVGGYISHYLLEKSRICTQSAEERNYHVFYMLLAGAPQQLRDKLSLGKPDDYRYLSGCTQYFANAKTEQLIPGSQKSKNHQQKGPLKDPIIDDYQHFHNLDKALGRLGLSDTEKLGIYSLVAAVLHLGNIAFEEIPDDVRGGCQVSEASEQSLTITSGLLGVDQTELRTALVSRVMQSKGGGFKGTVIMVPLKIYEASNARDALAKAIYSRLFDRIVGLINQSIPFQASNFYIGVLDIAGFEYFTVNSFEQFCINYCNEKLQKFFNDNILKNEQELYKREGLNVPEITFTDNQDIIELIEAKSNGIFTLLDEESKLPKPSYSHFTAEVHKSWANHYRLGLPRSSRLKAHRTLRDEEGFLVRHFAGAVCYNTEQFIEKNNDALHASLEGLVQECDNPLLQTLFPSGSSTSVRGKLNFISVGSKFKTQLGELMEKLEQNGTNFIRCIKPNSKMIDRQFEGSLALAQLKCSGTISVLELMEHGYPSRVLFADLYSMYKSVLPPELVSLPARTFCEAMFQSLNLSAKDFKFGITKVFFRPGKFVEFDRIMRSDPENMLAIVAKVKKWLIRSRWVKSALGALCVIKLRNRIIYRNKCVLIAQRIARGFLARKQHRPRYQGIGKINKIRTNTLKTIEIASGLKMGREEIISGVNDIYRQIDDAIKKIKMNPRITQREMDSMYTVVMANMNKLTVDLNTKLKEQQQAEEQERLRKIQEALEAERAAKEAEEQRQREEIENKRLKAEMETRRKAAEAQRLRQEEEDRRAALALQEQLEKEAKDDAKYRQQLEQERRDHELALRLANESNGQVEDSPPVIRNGVNDASPMGPNKLIRSENVRAQQQALGKQKYDLSKWKYSELRDAINTSCDIELLEACRQEFHRRLKVYHAWKAKNRKRTTMDENERAPRSVMEAAFKQPPLVQPIQEIVTAQHRYFRIPFMRANAPDNTKRGLWYAHFDGQWIARQMELHADKPPILLVAGTDDMQMCELSLEETGLTRKRGAEILEHEFNREWERNGGKAYKNLGAAKPNGPAAAMQKQQ
Consider B1, for which, in the assay with GST-Bsd (Drosophila) [2], the binding entry was “binds”.

B2: Yp3 (endogenous, embryo lysate) (protein, UniProt P06607 20-420)
chain: SKDASNDRLKPTKWLTATELENVPSLNDITWERLENQPLEQGAKVIEKIYHVGQIKHDLTPSFVPSPSNVPVWIIKSNGQKVECKLNNYVETAKAQPGFGEDEVTIVLTGLPKTSPAQQKAMRRLIQAYVQKYNLQQLQKNAQEQQQQLKSSDYDYTSSEEAADQWKSAKAASGDLIIIDLGSTLTNFKRYAMLDVLNTGAMIGQTLIDLTNKGVPQEIIHLIGQGISAHVAGAAGNKYTAQTGHKLRRITGLDPAKVLSKRPQILGGLSRGDADFVDAIHTSTFAMGTPIRCGDVDFYPNGPSTGVPGSENVIEAVARATRYFAESVRPGSERNFPAVPANSLKQYKEQDGFGKRAYMGLQIDYDLRGDYILEVNAKSPFGQRSPAHKQAAYHGMHHAQN
B2: the binding entry with GST-Bsd (Drosophila) [2] is listed as “binds”.
